Literature values in patent US11473153B2, “Device and methods of using device for separation of bacteria from complex samples” (priority 2014, dated 2022).
At least one structure is not confirmed: it was looked up by name or label, or the drawing left a doubt.

Tested on: bacteria
Settings: cited from earlier work

SMILES: N[C@@H](CC(=O)O)C(=O)O [Aspartate]
- Chemoattractant (bacteria for which the substance is one): E. coli, S. typhimurium
- Chemorepellent (bacteria for which the substance is one): P. fluorescencens
